“And” between values parts separate entries of the source, which are not always exact repeats. Equal values may be shown once. In all, about 300,000 compounds went through this assay and about 3,700 (1.2%) were called active. The inconclusive results got no clear call from the source; some entries with a clear call stand among them for comparison. Calls come from the whole dose curve; tested in HEK293 cells. Where the call is inconclusive, the potency comes from a doubtful curve fit.
Test: qHTS for Inhibitors of binding or entry into cells for Lassa Virus; note: nearly all actives have a fitted effect of over 50% in size
Conditions: Lassa virus pseudotype entry inhibition, cell reporter; activity change, negative = inhibition: at 37.9 µM (top of the series) unless noted
% is set by controls: 0 for no effect and ±100 for the full control effect; potency is the fitted concentration of half-maximal effect.

SMILES | activity change, negative = inhibition | Potency
COc1ccc(O)c(C(=O)c2cnc3onc(C)c3c2)c1 | inactive: 18.4% | –
CCOC(=O)c1c(C)[nH]c(CCC(=O)NCc2ccccc2Cl)c1C | inactive: 1.47% [at 46.1 µM] | –
CCc1ccc(NC(=O)CSc2nc3ccccc3c(=O)n2CCNC(C)=O)cc1 | inactive: -1.06% [at 46.1 µM] | –
Cc1ccc2nc(-c3sc4nc(C)ccc4c3N)[nH]c2c1 | – | inconclusive: 0.58 µM [activator, partial curve, poor fit]
Oc1ccc(NCc2ccccc2OCc2ccccc2F)cc1 | – | inconclusive: 22.4 µM [inhibitor, single point] and inconclusive: 14.1 µM [inhibitor, single point]
CC(/C=N/NC(=O)c1cc(-c2ccc(C)s2)[nH]n1)=C\c1ccccc1 | – | inconclusive: 35.5 µM [inhibitor, single point]
Cc1ccc(OCCCCn2cnc3ccccc32)c(C)c1 | – | inconclusive: 0.291 µM [inhibitor, partial curve, poor fit]
CCOc1ccc(CCNC(=O)COC(=O)COc2ccc(C(C)=O)cc2)cc1OCC | inactive: 17.3% | –
Cc1cc(C(F)(F)F)nn1Cc1ccc(C(=O)NCc2ccco2)o1 | – | inconclusive: 4.61 µM [inhibitor, partial curve]
Cc1ccc(NC(=O)C(C)n2nnc3sc4c(c3c2=O)CCCC4)cc1Cl (stereo not given) | – | inconclusive: 12.6 µM [activator, partial curve, poor fit]
Cc1c(Cl)cccc1NC(=O)c1ncoc1-c1ccco1 | – | inconclusive: 31.6 µM [activator, single point]
Cc1cc2cc(CN(Cc3cccs3)C(=S)NCC3CCCO3)c(=O)[nH]c2cc1C (stereo not given) | – | inconclusive: 35.5 µM [inhibitor, single point]
Cc1ccc(CN2CCSc3ccc(C(=O)NCC(C)c4ccccc4)cc32)cc1 (stereo not given) | inactive: -21.2% [at 46.1 µM] | –
COC(=O)CN1C(=O)CSc2ccc(S(=O)(=O)Nc3cccc(C)c3C)cc21 | – | inconclusive: 3.16 µM [activator, partial curve]
O=C(c1cc(-c2ccco2)on1)N1CCN(C(c2ccccc2)c2ccccc2)CC1 | inactive: -17% | –
COc1cccc(CN(C)C(=O)CCN(c2ccccc2)S(=O)(=O)c2ccc(C)cc2)c1OC | – | inconclusive: 11.2 µM [inhibitor, partial curve, poor fit]
O=C(Nc1ncc(Cc2cccc(Cl)c2Cl)s1)C1CCCO1 (stereo not given) | – | inconclusive: 35.5 µM [inhibitor, single point]
OCCNc1cc(-n2nc(-c3ccccc3)cc2-c2ccccc2)ncn1 | – | inconclusive: 2.06 µM [inhibitor, partial curve, poor fit]
CC1Cc2ccccc2N1C(=O)COC(=O)C1(c2ccccc2F)CCCC1 (stereo not given) | – | inconclusive: 15.8 µM [inhibitor, partial curve]
O=C(Nc1ccc(SC(F)(F)F)cc1)c1ccccn1 | – | inconclusive: 5.62 µM [inhibitor, partial curve, poor fit]
CN(C)c1ccc(CNc2ccccn2)cc1 | – | inconclusive: 2.82 µM [inhibitor, single point]
Cn1cc(/C=C/C(=O)c2ccccc2)c2ccccc21 | – | inconclusive: 22.4 µM [inhibitor, single point]
CC(=O)c1cnc(SCc2ccc(Cl)cc2)nc1C | – | inconclusive: 2.82 µM [inhibitor, full curve, poor fit]

Some of the entries so far, as comma-separated lines:
SMILES,"activity change, negative = inhibition",Potency
COc1ccc(O)c(C(=O)c2cnc3onc(C)c3c2)c1,inactive: 18.4%,–
CCOC(=O)c1c(C)[nH]c(CCC(=O)NCc2ccccc2Cl)c1C,inactive: 1.47% [at 46.1 µM],–
CCc1ccc(NC(=O)CSc2nc3ccccc3c(=O)n2CCNC(C)=O)cc1,inactive: -1.06% [at 46.1 µM],–
Cc1ccc2nc(-c3sc4nc(C)ccc4c3N)[nH]c2c1,–,"inconclusive: 0.58 µM [activator, partial curve, poor fit]"
Oc1ccc(NCc2ccccc2OCc2ccccc2F)cc1,–,"inconclusive: 22.4 µM [inhibitor, single point] and inconclusive: 14.1 µM [inhibitor, single point]"
CC(/C=N/NC(=O)c1cc(-c2ccc(C)s2)[nH]n1)=C\c1ccccc1,–,"inconclusive: 35.5 µM [inhibitor, single point]"
Cc1ccc(OCCCCn2cnc3ccccc32)c(C)c1,–,"inconclusive: 0.291 µM [inhibitor, partial curve, poor fit]"
CCOc1ccc(CCNC(=O)COC(=O)COc2ccc(C(C)=O)cc2)cc1OCC,inactive: 17.3%,–
Cc1cc(C(F)(F)F)nn1Cc1ccc(C(=O)NCc2ccco2)o1,–,"inconclusive: 4.61 µM [inhibitor, partial curve]"
Cc1ccc(NC(=O)C(C)n2nnc3sc4c(c3c2=O)CCCC4)cc1Cl (stereo not given),–,"inconclusive: 12.6 µM [activator, partial curve, poor fit]"
Cc1c(Cl)cccc1NC(=O)c1ncoc1-c1ccco1,–,"inconclusive: 31.6 µM [activator, single point]"
Cc1cc2cc(CN(Cc3cccs3)C(=S)NCC3CCCO3)c(=O)[nH]c2cc1C (stereo not given),–,"inconclusive: 35.5 µM [inhibitor, single point]"
Cc1ccc(CN2CCSc3ccc(C(=O)NCC(C)c4ccccc4)cc32)cc1 (stereo not given),inactive: -21.2% [at 46.1 µM],–
COC(=O)CN1C(=O)CSc2ccc(S(=O)(=O)Nc3cccc(C)c3C)cc21,–,"inconclusive: 3.16 µM [activator, partial curve]"

More records

SMILES | activity change, negative = inhibition | Potency
CS(=O)(=O)NCCCCCCNS(C)(=O)=O | inactive: 14.7% | –
O=Nc1c2ccc[nH]c-2c2ccc([N+](=O)[O-])cc12 | inactive: -15.9% [at 46.1 µM] | –
COc1ccc(C(=O)NC(=S)Nc2ccccc2[N+](=O)[O-])cc1OC | inactive: 6.64% | –
Cc1cccc(N2CCN(S(=O)(=O)c3ccc4[nH]c5c(c4c3)CCCCC5)CC2)c1C | – | inconclusive: 35.5 µM [inhibitor, single point]
O=C(CSc1nc2ccccc2s1)N/N=C/c1ccco1 | inactive: 5.69% | –
O=C(Nc1ccc(N2CCCCC2)c(Cl)c1)c1cccnc1 | – | active: 0.891 µM
COc1ccc(-n2c(C)nc3cc(C(=O)N4CCC5(CC4)OCCO5)ccc32)cc1 | – | inconclusive: 3.55 µM [inhibitor, full curve]
O=C(/C=C/c1cccs1)Nc1ccc(N2CCOCC2)c(S(=O)(=O)Nc2ccccc2Cl)c1 | – | inconclusive: 35.5 µM [inhibitor, single point]
C#CC(C)(CC)NC(=O)c1cc2cccc(CC=C)c2oc1=O (stereo not given) | – | inconclusive: 10 µM [inhibitor, partial curve, poor fit]
COc1cc2c(cc1OC)-c1c(OC)c(OC)cc3c1[C@H](C2)N(C)CC3 | inactive: -14.8% | –
COc1ccc(CNCCc2c[nH]c3ccccc23)c(OC)c1C | – | inconclusive: 35.5 µM [inhibitor, single point]
Cc1c(Cl)cccc1NC(=O)CN1CCC(C(O)(c2ccccc2)c2ccccc2)CC1 | – | inconclusive: 4.11 µM [inhibitor, partial curve, poor fit]
O=[N+]([O-])c1cccc(C=NNc2ccc3ccccc3n2)c1O | – | active: 2.51 µM
CCOC(=O)CCCCC(=O)c1[nH]c(=O)[nH]c1CSc1nc2ccccc2[nH]1 | inactive: 14.3% | –
CCOC(=O)c1ccc(Cn2cnc3ccccc3c2=O)cc1 | inactive: -1.48% | –
COc1ccccc1CNC(=O)c1cc(C2CC2)nc2c1cnn2C(C)C | inactive: -25.1% | –
Cc1ccc(Cn2cc(S(=O)(=O)c3cccc(Cl)c3)c(=O)c3cc(F)c(N4CCOCC4)cc32)cc1 | – | inconclusive: 6.31 µM [inhibitor, single point]
Cc1ccc(S(=O)(=O)N2CC3CCCN3c3ccc(C(F)(F)F)cc32)cc1 (stereo not given) | – | inconclusive: 23.1 µM [inhibitor, single point]
O=c1c2[nH]c3ccc(F)cc3c2ncn1CC1CCCO1 (stereo not given) | – | inconclusive: 12.6 µM [activator, partial curve]
O=C(Nc1ccc2c(c1)OCO2)c1ccc2c(c1)OCO2 | – | inconclusive: 16.4 µM [inhibitor, partial curve, poor fit]
C/C=C/c1cc(CN2CCN(c3ccc(OC)cc3)CC2)c(O)c(OC)c1 | inactive: 2.97% | –
Cc1ccccc1NC(=O)C1CCCN1S(=O)(=O)c1ccc2c(c1)n(C)c(=O)c(=O)n2C (stereo not given) | – | inconclusive: 1.16 µM [inhibitor, full curve, poor fit]
